Measurements published in patent US6426105B1, “Use of lysophosphatidylethanolamine (18.1) and lysophosphatidylinositol to retard senescence and to enhance fruit ripening” (Wisconsin Alumni Research Foundation, priority 1997, dated 2002).
Some entries share one result that the patent states for a list of compounds. At least one compound was matched to its structure with a doubt left.

System: snapdragon flowering spikes
Assay: Vase life and senescence of cut snapdragon spikes
Conditions: water-treated 4 days

CCCCCCCC/C=C\CCCCCCCC(=O)OCC(O)COP(=O)(O)OCCN (stereo not shown) [LPE (18:1), lysophosphatidylethanolamine (18:1)] was tested, and the “time flowers remained marketable” value was “up to 13 days”.
